# PubChem BioAssay AID1487 (National Center for Advancing Translational Sciences (NCATS), 2009)
# Hit rate of the full screen: of about 200,000 compounds, about 25 (0.01%) were called active. The inconclusive results got no clear call from the source; some entries with a clear call stand among them for comparison. The call rests on the fitted dose curve; in most records, active means well fitted inhibition curve with a large enough effect in the signal ratio, with a control signal flat (not every such curve was filed as active); inconclusive means small, poorly fitted or top-dose-only effect, or effect the other way, or a change in a side signal; inactive means flat fitted curve, though single readings scatter; the % refers to the signal ratio. Potencies beside an inconclusive call are fits to weak or partial responses and may not hold up.
# Test: qHTS Assay for Modulators of Lamin A Splicing
# Conditions: HeLa LMNA splicing GFP/RFP minigene ratio, 48 h; ratio change, negative = inhibition: at 46.1 µM (top of the series) unless noted
# Summary of the method: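 S3 HeLa stable clones carrying a lamin A-EGFP splicing minigene plus DsRed2 were seeded at 600 cells/well in Opti-MEM with 2% FBS, pin-dosed and incubated 48 h at 37°C. Acumen cytometry (488 nm) gave the GFP/RFP total-intensity ratio.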
# On the % scale 0 is the no-effect control and ±100 the full control effect; potency means the concentration at half of the fitted maximal effect.
SMILES,"ratio change, negative = inhibition",Potency
O=C(NC1=NCCS1)C1CC(=O)N(c2ccc(Cl)cc2)C1 (stereo unspecified),inconclusive: -2.77% [at 46 µM],
O=c1cc(N2CCCCC2)c(-c2ccccc2)nn1Cc1ccc(Cl)cc1Cl,,"inconclusive: 22.4 µM [cytotoxic, partial curve]"
Cc1ccc(-n2ncc3c(N4CCC(C)CC4)ncnc32)cc1C,,"inconclusive: 12.6 µM [inhibitor, partial curve]"
O=C(NCC1CCCO1)C(c1cccs1)N(Cc1cccs1)C(=O)c1ccc(-c2ccccc2)[nH]1 (stereo unspecified),,"inconclusive: 35.5 µM [fluorescent, single point]"
CCOc1ccc(C(=O)N2CCN(Cc3cc(=O)n4nc(-c5cccc(OC)c5)sc4n3)CC2)cc1,inactive: 12.8% [at 46 µM],
CCOC(=O)c1c(C)n(C)c2ccc(OC)c(NC(=O)CN3CCN(C(=O)c4ccco4)CC3)c12,inactive: -3.97%,
O=C(CC1S/C(=N/N=C/c2ccco2)NC1=O)Nc1ccccc1 (stereo unspecified),inconclusive: 7.27% [at 46 µM],
COc1ccc(C2C(C(=O)N3CCCCC3)CC(=O)N2c2ccc(OC)cc2)cc1 (stereo unspecified),inactive: 1.54%,
Cc1ccc(C(C)C)c(OCC(=O)Nc2nc3c(s2)CCCC3)c1,,"inconclusive: 5.62 µM [falling, single point]"
CC(C)c1ccc(NC(=S)NCc2cccs2)cc1,,"inconclusive: 35.5 µM [falling, single point]"
c1cncc(-c2cncnc2-n2ccnc2)c1,inactive: -6.41%,
CS(=O)(=O)c1ccc2nc(NC(=O)c3ccco3)sc2c1,inactive: -16.6%,
O=C(CCC(=O)NNC(=O)COc1ccccc1)NCc1ccccc1,inactive: -0.449%,
O=C(CNS(=O)(=O)c1ccccc1)NCC(=O)OCc1ccc(C(=O)c2ccccc2)cc1,inactive: 4.94%,
Cn1ccnc1Sc1nc2ccccc2nc1NS(=O)(=O)c1ccccc1,inactive: -13%,
CCOC(=O)c1ccc(Nc2nc(C(=O)OCC)nc3ccccc23)cc1,inconclusive: -13.5% [at 46 µM],
COc1cccc(Cn2c(=O)c(-c3ccccc3)nc3cnc(N4CCNCC4)nc32)c1,inconclusive: -3.98%,
COC(=O)CNC(c1ccccc1)c1cc(C)ccc1NC(=O)c1cccc(Cl)c1 (stereo unspecified),inconclusive: -21%,
CCOc1ccc(CN2CCN(CC(O)Cn3c4ccccc4c4ccccc43)CC2)cc1 (stereo unspecified),,"inconclusive: 35.5 µM [falling, single point]"
CCN(CC)S(=O)(=O)c1ccc2nc(NC(=O)c3ccc(Br)o3)sc2c1,inconclusive: -4.49% [at 46 µM],
Oc1ccccc1Oc1c(F)c(F)nc(N2CCCC2)c1F,inconclusive: 8.58%,

# One compound at a time (already shown).
# Oc1ccccc1Oc1c(F)c(F)nc(N2CCCC2)c1F reads ratio change, negative = inhibition: inconclusive: 8.58%
# COC(=O)CNC(c1ccccc1)c1cc(C)ccc1NC(=O)c1cccc(Cl)c1 (stereo unspecified) reads ratio change, negative = inhibition: inconclusive: -21%
# CCOc1ccc(C(=O)N2CCN(Cc3cc(=O)n4nc(-c5cccc(OC)c5)sc4n3)CC2)cc1 reads ratio change, negative = inhibition: inactive: 12.8% [at 46 µM]

# Next structures follow.

SMILES,"ratio change, negative = inhibition",Potency
O=C(CCn1cnc(-c2ccccc2)c1-c1ccccc1)N/N=C/c1ccccc1O,,"inconclusive: 22.4 µM [falling, single point]"
O=S(=O)(c1ccc(Cl)c(Cl)c1)c1snnc1-c1ccccc1,,"inconclusive: 35.5 µM [rising, single point]"
CCN(CC)S(=O)(=O)c1cc(NS(=O)(=O)c2cccc(Cl)c2Cl)ccc1C,inconclusive: -34.4%,
NC(=S)N/N=C/c1coc2cc(Br)ccc2c1=O,inconclusive: 40.7% [at 46 µM],
CCC(=O)N1CCc2cc(CNS(=O)(=O)c3ccc(Cl)s3)ccc21,inconclusive: -1.34% [at 46 µM],
CCOc1ccc(NC(=O)c2cc(CN3CCCC3)on2)cc1,inconclusive: -17.1% [at 46 µM],
COc1ccc(/C=C/C(=O)Oc2cccc(/C=N/NC(=O)COc3c(C)cccc3C)c2)cc1,,"inconclusive: 35.5 µM [rising, single point]"
Cc1cccc(N(C)C(=O)C2CCN(S(=O)(=O)c3cccc4nonc34)CC2)c1,inactive: -3.95% [at 46 µM],
O=C(COc1c(Br)cc(Br)c2cccnc12)N1CCc2ccccc2C1,,"inconclusive: 35.5 µM [falling, single point]"
CCC(=O)N(Cc1cc2c(C)cc(C)cc2[nH]c1=O)C1CCCCC1,inconclusive: 13.7%,
CCCCCc1ccc(-c2ccc(OCC)cc2)nc1,inconclusive: 33.5% [at 46 µM],
O=C(O)c1ccc(CN2CCOCC2)o1,inconclusive: 12.4% [at 46 µM],
CCOc1ccc(-c2nnn(CC(=O)c3ccc4c(c3)OCCO4)n2)cc1,,"inconclusive: 35.5 µM [fluorescent, single point]"
CCOc1ccccc1CNC(=O)Cn1nc(C)c2nn(-c3ccc(Cl)cc3)c(C)c2c1=O,inconclusive: -2.12% [at 46 µM],
COc1ccc(C(=O)NCCSCc2ccco2)cc1OC,inconclusive: 5.94%,
CCC1(c2ccc(Cl)cc2)NC(=S)N(c2ccc(C)cc2)N1 (stereo unspecified),inactive: -11.8%,
N=c1n(CCN2CCCC2)c2ccccc2n1CC(O)c1ccc(Cl)c(Cl)c1 (stereo unspecified),inconclusive: -14% [at 46 µM],
C=CCN(CC=C)C(=O)C1CC(=O)N(c2ccc(Br)cc2)C1 (stereo unspecified),inconclusive: 8.06%,
Cc1cccc(C)c1OCc1nc2ccccc2c(=O)n1/N=C/c1c[nH]c2ccccc12,inconclusive: -25%,
COc1cccc(C2C(C#N)=C(N)Oc3c2oc(CO)cc3=O)c1OC (stereo unspecified),inactive: 7.01%,
